# Test results: PubChem BioAssay
# The list shows a part of the results, in another mix than the full data. Calls of active or inactive are those of the source. Cut-off read from the data, not from the text of the source: active = fold change permeability below about 0.7 or above about 1.3; inactive = in between.
# Assay: compounds altering in vitro BBB leakiness – cell-based, FITC-avidin fluorescence, HTS, primary screen (AID 1963498); note: test concentration not given here
# Conditions: brain endothelial barrier, actives lie on both sides
compound,measurement,value
CCCc1nc2c(N)nc3ccccc3c2s1,fold change permeability,active: 1.7
